Measured values taken from paper PMC5745004.
Results are given in words; binding and its absence hold for the method and conditions named. Binding seen in cells or lysates may run through a third protein. These calls come from enrichment with a bait or labelling near it, and not all partners need be listed.

Amino acid sequences for entries named in this document (tags omitted). A change or cut given only in a name is not applied to a line headed by its entry.
UniProt P23321: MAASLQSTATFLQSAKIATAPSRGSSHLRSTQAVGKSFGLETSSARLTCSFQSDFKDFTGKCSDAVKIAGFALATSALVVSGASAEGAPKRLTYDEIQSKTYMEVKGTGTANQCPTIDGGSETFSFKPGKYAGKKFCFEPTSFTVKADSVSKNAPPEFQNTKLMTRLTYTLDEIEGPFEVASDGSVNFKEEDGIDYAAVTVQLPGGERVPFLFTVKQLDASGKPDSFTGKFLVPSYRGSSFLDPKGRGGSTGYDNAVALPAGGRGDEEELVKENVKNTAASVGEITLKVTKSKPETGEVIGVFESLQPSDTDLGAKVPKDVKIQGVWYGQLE

Molecular target: PsbO1GFP (PsbO1^1-332GFP, full-length PsbO1 fused to GFP) expressed in Arabidopsis (Arabidopsis) (UniProt P23321)
Experiment: affinity purification with mass spectrometry; GFP-trap purification of PsbO1GFP from Arabidopsis seedling lysate, bound proteins analysed by LC-MS/MS

| binding | Binder |
| --- | --- |
| binds | HSP90C, endogenous in Arabidopsis seedlings (protein, UniProt Q9SIF2 61-780) CDAAVAEKETTEEGSGEKFEYQAEVSRLLDLIVHSLYSHKEVFLRELVSNASDALDKLRFLSVTEPSLLGDGGDLEIRIKPDPDNGTITITDTGIGMTKEELIDCLGTIAQSGTSKFLKALKENKDLGADNGLIGQFGVGFYSAFLVAEKVVVSTKSPKSDKQYVWESVADSSSYLIREETDPDNILRRGTQITLYLREDDKYEFAESTRIKNLVKNYSQFVGFPIYTWQEKSRTIEVEEDEPVKEGEEGEPKKKKTTKTEKYWDWELANETKPLWMRNSKEVEKGEYNEFYKKAFNEFLDPLAHTHFTTEGEVEFRSILYIPGMGPLNNEDVTNPKTKNIRLYVKRVFISDDFDGELFPRYLSFVKGVVDSDDLPLNVSREILQESRIVRIMRKRLIRKTFDMIQEISESENKEDYKKFWENFGRFLKLGCIEDTGNHKRITPLLRFFSSKNEEELTSLDDYIENMGENQKAIYYLATDSLKSAKSAPFLEKLIQKDIEVLYLVEPIDEVAIQNLQTYKEKKFVDISKEDLELGDEDEVKDREAKQEFNLLCDWIKQQLGDKVAKVQVSNRLSSSPCVLVSGKFGWSANMERLMKAQALGDTSSLEFMRGRRILEINPDHPIIKDLNAACKNAPESTEATRVVDLLYDTAIISSGFTPDSPAELGNKIYEMMAMAVGGRWGRVEEEEESSTVNEGDDKSGETEVVEPSEVRAESDPWQD |
| binds | PsbS/CP22, endogenous in Arabidopsis seedlings (protein, UniProt Q9XF91 60-265) AAPKKVEKPKSKVEDGIFGTSGGIGFTKANELFVGRVAMIGFAASLLGEALTGKGILAQLNLETGIPIYEAEPLLLFFILFTLLGAIGALGDRGKFVDDPPTGLEKAVIPPGKNVRSALGLKEQGPLFGFTKANELFVGRLAQLGIAFSLIGEIITGKGALAQLNIETGIPIQDIEPLVLLNVAFFFFAAINPGNGKFITDDGEES |
